{
  "sequences": {"note": "By UniProt entry, the sequences of proteins in these tests, tags left out.", "UniProt P35372, whole entry": "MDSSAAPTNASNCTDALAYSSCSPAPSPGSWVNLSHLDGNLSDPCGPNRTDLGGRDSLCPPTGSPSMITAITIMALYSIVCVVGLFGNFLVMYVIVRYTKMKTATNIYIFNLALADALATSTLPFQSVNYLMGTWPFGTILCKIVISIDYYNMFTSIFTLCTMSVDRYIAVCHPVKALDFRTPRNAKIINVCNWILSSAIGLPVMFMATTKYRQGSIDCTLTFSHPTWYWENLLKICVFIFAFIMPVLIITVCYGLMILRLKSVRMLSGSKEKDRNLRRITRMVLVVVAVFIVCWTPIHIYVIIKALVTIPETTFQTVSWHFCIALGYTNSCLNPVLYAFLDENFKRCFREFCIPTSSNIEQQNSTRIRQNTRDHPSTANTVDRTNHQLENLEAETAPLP"},
  "source": "patent EP1530462B1",
  "about": "“1-PHENYL-2-DIMETHYLAMINOMETHYL CYCLOHEXANE COMPOUNDS USED FOR THE THERAPY OF DEPRESSIVE SYMPTOMS, PAIN, AND INCONTINENCE” (priority 2002, dated 2004)",
  "molecular_target": "µ-Opioid Rezeptor (Homo sapiens, UniProt P35372)",
  "assay": "µ-opioid receptor binding (species not given, reference antidepressants)",
  "settings": "unw. = inactive",
  "text": "Die Ergebnisse dieser, in der Fachliteratur in ihrer Durchführung hinlänglich bekannten Standardtests sind in Tabelle 1 zusammengefaßt: Tabelle 1: Uptakehemmung und Opioidrezeptorbindung",
  "data": [
    {"smiles": "CNCCC(Oc1ccc(C(F)(F)F)cc1)c1ccccc1", "note": "(racemic) [Fluoxetin]", "values": [
      {"measurement": "Ki-Werte µ-Opioid Rezeptor", "value": "unw."}
    ]}
  ]
}
